# Test results published in US9737493B2, “Compositions and methods for modulating DNMT1 inhibitor activity” (University of Louisville Research Foundation, Inc., priority 2012, dated 2017).
# Assay: DTNB assay for free sulfhydryls
# Settings: 0.25 mM Cys or GSH, pH 8, 30 min, 37° C.
# Experimental: FIG. 12: XB05 is Weakly Reactive with Thiols In Vitro: 0.25 mM Cysteine (Cys, top panel) or glutathione (GSH, bottom panel) were incubated with XB05, diethyl maleate (DEM), or maleimide at the indicated concentrations, or with an equivalent amount of vehicle (DMSO), for 30 min at 37° C. 5,5′-Dithiobis-2-nitrobenzoic acid (DTNB) assays were conducted as described in Methods. Absorbance for triplicate wells was determined at 412 nm. Points represent the mean and standard deviation for triplicate wells. Data shown are representative of two independent experiments.
# Dithiobis-2-nitrobenzoic Acid (DTNB) Assay for Free Sulfhydryls. For each experiment, a 20× working solution of DTNB (2 mM DTNB, 50 mM sodium acetate in 100 mM Tris-HCl, pH 8.0) and 2× solutions of cysteine and GSH (0.5 mM in 100 mM Tris-HCl, pH 8.0) were freshly prepared. 10 mM stock solutions of XB05, diethyl maleate and maleimide were prepared in 100% DMSO, and subsequently serially diluted to 2× working solutions in 100 mM Tris-HCl, pH 8.0. 100 μl each of thiol compounds (final concentration 0.25 mM) and thiol-reactive compounds (final concentrations 0.05-5 mM) or vehicle control (DMSO) were added in duplicate to a 96-well plate and allowed to incubate at 37° C. for 30 minutes. […] Absorbance was read on a Biotek HT Synergy Plate reader (Winooski, Vt.) at 412 nm.
compound,measurement,value
"CCOC(=O)/C=C\C(=O)OCC [DEM, diethyl maleate, reference compound]",reactivity with free Cys or GSH,"less reactive than maleimide, but still more reactive than XB05"

# Structures can show the parent of a compound that is named as a salt.
